Measurements taken from patent US20260210966A1, “METHOD FOR PREDICTING FORMULATION EXHIBITING TARGET SENSORY QUALITY, AND METHOD FOR RECONFIGURING TARGET SENSORY QUALITY” (Ajinomoto Co., Inc., priority 2023, published 2026).

Assay: Sensory evaluation of aroma reconstruction targeting a single aroma component <3-2> (196 test substances)
Design: species or system human
Details: reference Test 1 (−)-carvone, Test 2 trans-anethole, Test 3 syringol, Test 4 sotolon; for Similarity (sensory similarity to the target aroma): median of all replicates, blind, n=4x3 times, 5-point scale, 0 not similar at all to 4 extremely similar; for Corresponding evaluation labels: scale labels matching the median score
Description: The four types of substances shown in Table 6 were selected and used as target aromas. Olfactory receptor activity profiles of the targets in an olfactory receptor activity database were set as target profiles.
For each target, 196 types of substances obtained by excluding the target from the olfactory receptor activity database were used as a test substance group, and olfactory receptor activity profiles of these test substances were set as a test substance group profile.
Using the target profile as an objective variable (352 points×1 variable), and the test substance group profile as explanatory variables (352 points×196 variables), nonnegative constraint linear sparse modeling was performed to obtain a composite profile that approximates the target profile, and coefficients of the variables (the combination ratios of the receptor activity profiles of two or more target substances that provide the composite profile). Specifically, a LASSO (least absolute shrinkage and selection operator) regression model was used. The intercept of the model was set to 0. Using a parameter λ that defines the strength of regularization, optimization was performed such that the number of variables having a coefficient greater than 0 (the number of two or more target substances that provide the composite profile) was not more than 4. A mixing ratio of the target substances was determined according to the ratio of the coefficients of the model.
The target substances were mixed according to the calculated mixing ratio, to prepare a reconstructed product. For sensory evaluation, each of the target and the reconstructed product was diluted to a concentration at which the aroma could be smelled without difficulty.
The sensory evaluation was carried out in a blind manner (n=4×3 times). A target aroma was presented to each panelist as a reference sample. Subsequently, as an evaluation sample, the target aroma or the aroma of the reconstructed product was presented in a blind manner. Each panelist evaluated how similar the quality of aroma of each evaluation sample was to the quality of aroma of the reference sample, using a 5-point scale (0 point: not similar at all, 1 point: slightly similar, 2 points: moderately similar, 3 points: very similar, 4 points: extremely similar). Each test was carried out by each subject in three replicates on different days. For each evaluation sample, the median of the scores in all replicates by all panelists was calculated to determine the “sensory similarity” to the target aroma.

## COc1cccc(OC)c1O [Test 3 Target, syringol]
  Similarity (sensory similarity to the target aroma): 4.0
  Corresponding evaluation labels: “extremely similar”

## CC1=C(O)C(=O)OC1C (stereo not shown) [Test 4 Target, sotolon]
  Similarity (sensory similarity to the target aroma): 4.0
  Corresponding evaluation labels: “extremely similar”
